No constants are given. Whether binding was seen depends on the method and setting. Some binding calls cover weakened binding; strength is not graded here.
Key:
Rod (human) [1] = biological target: Rod (human) (UniProt P50748); assay: SDS-PAGE of washed, dissolved crystals; crystals of the purified co-expressed complex grown against 380 mM ammonium sulfate, 0.1 M MES pH 6.3, washed extensively and analysed by SDS-PAGE
Rod (human) [2] = biological target: Rod (human) (UniProt P50748); assay: co-purification (Ni-NTA affinity, then SEC); three subunits co-expressed in Tnao38 cells; cleared lysate on Ni-NTA (50 mM HEPES pH 8.5, 200 mM NaCl, 5% glycerol, 20 mM imidazole), held by His6-Rod; then Superose 6 10/300 in 25 mM HEPES pH 8.5, 250 mM NaCl, 4 mM TCEP; SDS-PAGE of fractions

By UniProt entry, the sequences of proteins in these tests, tags left out.
UniProt P50748: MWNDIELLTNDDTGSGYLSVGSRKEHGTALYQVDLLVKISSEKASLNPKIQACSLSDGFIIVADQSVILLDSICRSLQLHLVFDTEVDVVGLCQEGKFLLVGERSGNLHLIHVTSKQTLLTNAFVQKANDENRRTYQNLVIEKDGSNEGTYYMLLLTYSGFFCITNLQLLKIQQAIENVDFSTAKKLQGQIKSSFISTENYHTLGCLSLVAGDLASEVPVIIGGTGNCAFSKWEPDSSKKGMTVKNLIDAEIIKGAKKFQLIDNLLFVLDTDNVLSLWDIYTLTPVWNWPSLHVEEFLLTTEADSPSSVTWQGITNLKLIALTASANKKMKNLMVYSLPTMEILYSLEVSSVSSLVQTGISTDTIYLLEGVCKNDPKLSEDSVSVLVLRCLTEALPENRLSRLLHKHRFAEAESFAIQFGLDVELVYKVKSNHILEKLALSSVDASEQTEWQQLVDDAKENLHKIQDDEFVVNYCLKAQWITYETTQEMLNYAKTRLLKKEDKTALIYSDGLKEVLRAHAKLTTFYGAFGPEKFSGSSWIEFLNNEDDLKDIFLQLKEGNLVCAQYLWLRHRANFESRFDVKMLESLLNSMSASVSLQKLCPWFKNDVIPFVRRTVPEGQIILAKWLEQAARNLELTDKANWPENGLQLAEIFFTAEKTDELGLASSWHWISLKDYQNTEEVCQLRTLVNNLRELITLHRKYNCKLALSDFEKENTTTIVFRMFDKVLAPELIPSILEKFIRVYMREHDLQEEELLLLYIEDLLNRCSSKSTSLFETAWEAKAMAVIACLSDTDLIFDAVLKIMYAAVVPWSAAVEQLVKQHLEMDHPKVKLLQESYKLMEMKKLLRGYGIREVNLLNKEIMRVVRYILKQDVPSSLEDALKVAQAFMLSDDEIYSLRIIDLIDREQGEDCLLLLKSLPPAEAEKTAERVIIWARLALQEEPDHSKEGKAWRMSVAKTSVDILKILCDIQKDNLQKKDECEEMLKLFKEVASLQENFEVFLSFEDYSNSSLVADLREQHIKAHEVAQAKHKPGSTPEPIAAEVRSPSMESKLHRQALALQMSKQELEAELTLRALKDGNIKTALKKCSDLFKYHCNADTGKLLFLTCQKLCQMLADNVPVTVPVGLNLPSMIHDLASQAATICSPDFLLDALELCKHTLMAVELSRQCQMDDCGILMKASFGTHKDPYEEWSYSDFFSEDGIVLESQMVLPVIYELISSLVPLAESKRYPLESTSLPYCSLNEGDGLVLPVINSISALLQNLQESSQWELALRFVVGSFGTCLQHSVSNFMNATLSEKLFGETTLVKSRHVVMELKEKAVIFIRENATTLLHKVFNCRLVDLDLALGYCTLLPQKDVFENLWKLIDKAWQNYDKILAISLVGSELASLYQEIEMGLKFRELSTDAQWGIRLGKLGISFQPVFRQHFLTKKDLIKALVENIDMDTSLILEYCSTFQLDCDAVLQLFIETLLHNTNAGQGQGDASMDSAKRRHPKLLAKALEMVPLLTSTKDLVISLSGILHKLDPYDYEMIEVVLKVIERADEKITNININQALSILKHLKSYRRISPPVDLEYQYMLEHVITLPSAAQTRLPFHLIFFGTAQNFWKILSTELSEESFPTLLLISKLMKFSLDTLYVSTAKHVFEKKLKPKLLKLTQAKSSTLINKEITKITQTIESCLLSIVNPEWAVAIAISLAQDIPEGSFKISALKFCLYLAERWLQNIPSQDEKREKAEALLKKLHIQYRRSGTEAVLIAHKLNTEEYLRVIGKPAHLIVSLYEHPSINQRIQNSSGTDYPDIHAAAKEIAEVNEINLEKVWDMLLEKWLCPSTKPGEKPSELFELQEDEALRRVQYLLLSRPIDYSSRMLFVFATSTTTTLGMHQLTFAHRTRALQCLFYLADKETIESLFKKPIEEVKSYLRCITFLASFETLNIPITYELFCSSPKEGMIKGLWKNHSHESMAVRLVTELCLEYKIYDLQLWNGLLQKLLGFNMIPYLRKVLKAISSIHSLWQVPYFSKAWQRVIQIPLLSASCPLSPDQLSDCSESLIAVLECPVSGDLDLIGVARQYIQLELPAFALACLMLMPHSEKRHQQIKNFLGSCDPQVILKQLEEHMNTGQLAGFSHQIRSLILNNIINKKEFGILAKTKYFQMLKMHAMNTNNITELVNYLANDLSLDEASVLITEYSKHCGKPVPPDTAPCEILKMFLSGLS
UniProt Q9H900: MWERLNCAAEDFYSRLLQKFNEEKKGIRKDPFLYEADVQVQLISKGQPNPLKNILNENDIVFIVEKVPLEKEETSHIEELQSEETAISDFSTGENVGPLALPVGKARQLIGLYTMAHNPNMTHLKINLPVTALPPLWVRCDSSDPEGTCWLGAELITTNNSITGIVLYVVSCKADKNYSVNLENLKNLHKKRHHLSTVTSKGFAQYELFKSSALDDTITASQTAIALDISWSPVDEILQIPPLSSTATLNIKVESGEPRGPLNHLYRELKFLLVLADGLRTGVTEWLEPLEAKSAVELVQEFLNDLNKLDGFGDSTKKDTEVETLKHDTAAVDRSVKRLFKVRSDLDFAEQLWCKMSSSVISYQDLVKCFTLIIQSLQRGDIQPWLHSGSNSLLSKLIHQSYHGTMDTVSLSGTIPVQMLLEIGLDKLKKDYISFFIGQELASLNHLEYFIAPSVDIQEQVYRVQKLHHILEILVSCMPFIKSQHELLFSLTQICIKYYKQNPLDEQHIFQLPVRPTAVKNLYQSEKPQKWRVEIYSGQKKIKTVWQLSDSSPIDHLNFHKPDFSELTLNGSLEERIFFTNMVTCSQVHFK

Zwilch (from UniProt Q9H900 1-591)
binding (Rod (human) [1]): binds | binding (Rod (human) [2]): binds

B1: ZW10 (protein, UniProt O43264 1-779)
chain: MASFVTEVLAHSGRLEKEDLGTRISRLTRRVEEIKGEVCNMISKKYSEFLPSMQSAQGLITQVDKLSEDIDLLKSRIESEVRRDLHVSTGEFTDLKQQLERDSVVLSLLKQLQEFSTAIEEYNCALTEKKYVTGAQRLEEAQKCLKLLKSRKCFDLKILKSLSMELTIQKQNILYHLGEEWQKLIVWKFPPSKDTSSLESYLQTELHLYTEQSHKEEKTPMPPISSVLLAFSVLGELHSKLKSFGQMLLKYILRPLASCPSLHAVIESQPNIVIIRFESIMTNLEYPSPSEVFTKIRLVLEVLQKQLLDLPLDTDLENEKTSTVPLAEMLGDMIWEDLSECLIKNCLVYSIPTNSSKLQQYEEIIQSTEEFENALKEMRFLKGDTTDLLKYARNINSHFANKKCQDVIVAARNLMTSEIHNTVKIIPDSKINVPELPTPDEDNKLEVQKVSNTQYHEVMNLEPENTLDQHSFSLPTCRISESVKKLMELAYQTLLEATTSSDQCAVQLFYSVRNIFHLFHDVVPTYHKENLQKLPQLAAIHHNNCMYIAHHLLTLGHQFRLRLAPILCDGTATFVDLVPGFRRLGTECFLAQMRAQKGELLERLSSARNFSNMDDEENYSAASKAVRQVLHQLKRLGIVWQDVLPVNIYCKAMGTLLNTAISEVIGKITALEDISTEDGDRLYSLCKTVMDEGPQVFAPLSEESKNKKYQEEVPVYVPKWMPFKELMMMLQASLQEIGDRWADGKGPLAAAFSSSEVKALIRALFQNTERRAAALAKIK
binding (Rod (human) [1]): binds | binding (Rod (human) [2]): binds

From PMC4388180
